Laboratory results taken from PubChem BioAssay AID330 (DTP/NCI, 2004).
The list does not hold the whole screen: it gathers tests that were run many times, whatever their T/C, doses with no T/C, and many T/C values between a quarter and a half above the control. Other doses and runs of a compound stand elsewhere. T/C: endpoint of the treated group in % of that of the vehicle group. Some entries give survivors of the animals treated and no T/C: the source files T/C as zero there, which appears to mark a toxic dose or a test without result, not a measured value. Some doses without a T/C left all or most animals alive at the check, yet need not have been tolerated: the source hardly ever lists a survival T/C far under the control, and the zero likely stands for such cases as well. Survivors were counted at the toxicity check, usually on the fifth day, unless a day is given; later deaths do not show. Schedule codes are those of the source, read here as Q, the interval in days (D) or hours (H), X, the number of doses. Some doses were run more than once; the results are listed from low to high. Some structures stand for samples that the source files as different forms (salt, stereo form or complex); doses refer to the form tested. Signs of the kind (2×) stand for listed records that agree. Where survival is the endpoint, the PubChem record calls one and a half times the control and up active, and a quarter to a half above the control has no call in these data; cut-offs in other NCI protocols can differ. Some T/C values are followed by the survivors on the day toxicity was checked, most often the fifth; where none is given, no animal had died by that day.

System: P388 leukemia ip, CD2F1 mice, survival T/C
Experiment: NCI In Vivo Anticancer Drug Screen. Data for tumor model P388 Leukemia (intraperitoneal) in CD2F1 (CDF1) mice
Conditions: T/C endpoint: median survival time, higher T/C = longer survival
[1] = dose: 50.0 mg/kg/injection, schedule: Q01DX009 (ip), vehicle: saline
[2] = dose: 100.0 mg/kg/injection, schedule: Q01DX009 (ip), vehicle: saline
[3] = dose: 200.0 mg/kg/injection, schedule: Q01DX009 (ip), vehicle: saline
[4] = dose: 100.0 mg/kg/injection, schedule: Q04DX003 (ip), vehicle: saline
[5] = dose: 50.0 mg/kg/injection, schedule: Q01DX009 (ip), vehicle: saline with Tween-80
[6] = dose: 100.0 mg/kg/injection, schedule: Q01DX009 (ip), vehicle: saline with Tween-80
[7] = dose: 40.0 mg/kg/injection, schedule: Q04DX003 (ip), vehicle: saline with Tween-80
[8] = dose: 50.0 mg/kg/injection, schedule: Q01DX005 (ip), vehicle: saline with Tween-80
[9] = dose: 100.0 mg/kg/injection, schedule: Q01DX005 (ip), vehicle: saline with Tween-80
[10] = dose: 200.0 mg/kg/injection, schedule: Q01DX005 (ip), vehicle: saline with Tween-80
[11] = dose: 240.0 mg/kg/injection, schedule: Q01DX005 (ip), vehicle: saline
[12] = dose: 100.0 mg/kg/injection, schedule: Q01DX009 (ip), vehicle: Klucel (hydroxypropylcellulose) (HPC)
[13] = dose: 200.0 mg/kg/injection, schedule: Q01DX009 (ip), vehicle: Klucel (hydroxypropylcellulose) (HPC)

With `Cc1ncc(CSC(=N)N)n1Cc1ccccc1` the T/C (dose: 13.0 mg/kg/injection, schedule: Q01DX009 (ip), vehicle: saline) was 125 % of control, the T/C (dose: 20.0 mg/kg/injection, schedule: Q01DX009 (ip), vehicle: saline) was 132 % of control and the T/C [1] was 128 % of control. For the same compound, the survivor count [2] was 1 of 6 and the survivor count [3] was 0 of 6.

With `c1ccc(N2CCSCC2)cc1` the T/C [4] was 136 % of control.

In the case of `Cc1ccc2c(c1)-c1[nH]c3ccccc3c1CS2`, the survivor count (dose: 400.0 mg/kg/injection, schedule: Q04DX003 (ip), vehicle: Klucel (hydroxypropylcellulose) (HPC)) was 3 of 6.

With `CC(C)Cn1c(Cl)c(C(=O)O)c2ccccc21` the survivor count (dose: 400.0 mg/kg/injection, schedule: Q04DX002 (ip), vehicle: Klucel (hydroxypropylcellulose) (HPC)) was 6 of 6.

In the case of `FC(F)(F)S.[Ag]`, the survivor count [5] was 2 of 6 and the survivor count [6] was 0 of 6.

For `CCC(CC)OCCN1CCN(CCCN2c3ccccc3Sc3ccc(C(F)(F)F)cc32)CC1`, the T/C [7] was 131 % of control [5 of 6 alive] and the survivor count [7] was 6 of 6.

`CC1(CBr)C2CCC1C(=O)C2` (centres undefined) was tested, and the survivor count [8] was 2 of 6, the survivor count [9] was 1 of 6 and the survivor count [10] was 0 of 6.

With `O=C1NC(O)c2ccccc2O1` (centres undefined) the T/C [3] was 137 % of control.

With `Cc1oc2ccccc2c(=O)c1CN(CCO)CCO` the survivor count [11] was 0 of 6.

`CCOc1ccc(OCC)c(C(O)C(C)NC(C)C)c1` (centres undefined) was tested, and the survivor count (dose: 50.0 mg/kg/injection, schedule: Q01DX009 (ip), vehicle: Klucel (hydroxypropylcellulose) (HPC)) was 3 of 6, the survivor count [12] was 0 of 6 and the survivor count [13] was 0 of 6.

For `CCC1CN2CCc3cc(OC)c(OC)cc3C2CC1CCCl` (centres undefined), the survivor count [12] was 2 of 6 and the survivor count [13] was 0 of 6.

In the case of `O=C1NN=C(c2ccccc2)SC1c1ccccc1` (centres undefined), the survivor count [9] was 6 of 6.

With `CCCCN(CCCC)CCOc1ccc(/C(CC)=C(/CC)c2ccc(OCCN(CCCC)CCCC)cc2)cc1` the survivor count (dose: 100.0 mg/kg/injection, schedule: Q01DX005 (ip), vehicle: saline) was 3 of 6 and the survivor count (dose: 200.0 mg/kg/injection, schedule: Q01DX005 (ip), vehicle: saline) was 0 of 6.

For `c1ccc(C2SC3=NCCCN3Cc3ccccc32)cc1` (centres undefined), the survivor count [2] was 0 of 6 and the survivor count [3] was 0 of 6.

For `CCCCCCCCC[N+](C)([O-])CCCCCC[N+](C)([O-])CCCCCCCCC` (centres undefined), the survivor count [4] was 1 of 6, the survivor count (dose: 200.0 mg/kg/injection, schedule: Q04DX003 (ip), vehicle: saline) was 0 of 6 and the survivor count (dose: 400.0 mg/kg/injection, schedule: Q04DX003 (ip), vehicle: saline) was 0 of 5.

With `O=NN(CCCl)C(=O)Nc1ccc(Br)cn1` the T/C [5] was 130 % of control, the T/C (dose: 109.0 mg/kg/injection, schedule: Q01DX009 (ip), vehicle: saline with Tween-80) was 127 % of control and the T/C (dose: 165.0 mg/kg/injection, schedule: Q01DX009 (ip), vehicle: saline with Tween-80) was 127 % of control. The survivor count (dose: 250.0 mg/kg/injection, schedule: Q01DX009 (ip), vehicle: saline with Tween-80) was 0 of 6.

With `CC12CCCN(CCCl)C1CCC1C2CCC2(C)C1CCCN2CCCl` (centres undefined) the T/C (dose: 3.13 mg/kg/injection, schedule: Q01DX001 (ip), vehicle: saline with Tween-80) was 126 % of control [5 of 6 alive], the survivor count (dose: 3.13 mg/kg/injection, schedule: Q01DX001 (ip), vehicle: saline) was 1 of 6 and the survivor count (dose: 6.25 mg/kg/injection, schedule: Q01DX001 (ip), vehicle: saline with Tween-80) was 0 of 6 and 1 of 6. The survivor count (dose: 6.25 mg/kg/injection, schedule: Q01DX001 (ip), vehicle: saline) was 0 of 6, the survivor count (dose: 25.0 mg/kg/injection, schedule: Q01DX001 (ip), vehicle: saline) was 0 of 6 (2×) and the survivor count (dose: 50.0 mg/kg/injection, schedule: Q01DX001 (ip), vehicle: saline) was 0 of 6 (2×). For the same compound, the survivor count (dose: 100.0 mg/kg/injection, schedule: Q01DX001 (ip), vehicle: saline) was 0 of 6 (2×).

With `CC1=Nc2cccnc2N(C)N1C` the survivor count (dose: 120.0 mg/kg/injection, schedule: Q01DX005 (ip), vehicle: saline) was 6 of 6 and the survivor count [11] was 0 of 6.

With `Fc1ccc(CSC(=S)Nc2ccc(F)c(F)c2)cc1` the T/C [12] was 129 % of control and the T/C [13] was 131 % of control.

In the case of `CC1=C2C(=CC(C)(C)[C@@H]2O)C(=O)[C@](C)(O)C12CC2`, the T/C (dose: 0.18 mg/kg/injection, schedule: Q01DX010 (ip), vehicle: saline) was 125 % of control.

`CNC(=O)Nc1ccc(/C(C)=N/NC(N)=S)cc1` was tested, and the survivor count (dose: 240.0 mg/kg/injection, schedule: Q01DX005 (ip), vehicle: saline with Tween-80) was 6 of 6.

In the case of `COc1cc2cc[n+]3c4ccc([N+](=O)[O-])cc4ccc3c2cc1OC`, the T/C (dose: 25.0 mg/kg/injection, schedule: Q01DX005 (ip), vehicle: saline with Tween-80) was 132 % of control, the T/C (dose: 50.0 mg/kg/injection, schedule: Q01DX005 (ip), vehicle: saline with Tween-80, evaluated on day 20) was 127 % of control and the T/C (dose: 50.0 mg/kg/injection, schedule: Q01DX005 (ip), vehicle: saline with Tween-80, evaluated on day 30) was 132 % of control. For the same compound, the T/C (dose: 100.0 mg/kg/injection, schedule: Q01DX005 (ip), vehicle: saline with Tween-80, evaluated on day 20) was 149 % of control, the T/C (dose: 100.0 mg/kg/injection, schedule: Q01DX005 (ip), vehicle: saline with Tween-80, evaluated on day 30) was 141 % of control and the survivor count [10] was 2 of 5.

In the case of `NC(CCSCc1ccc(N(CCCl)CCCl)cc1)C(=O)O` (centres undefined), the survivor count [6] was 3 of 6, the survivor count (dose: 200.0 mg/kg/injection, schedule: Q04DX003 (ip), vehicle: saline with Tween-80) was 6 of 6 and the survivor count (dose: 400.0 mg/kg/injection, schedule: Q04DX003 (ip), vehicle: saline with Tween-80) was 3 of 6.

In the case of `CCOC(=O)C1Sc2c(c(=O)n(C)c3ccccc23)C1=O` (centres undefined), the survivor count (dose: 400.0 mg/kg/injection, schedule: Q01DX005 (ip), vehicle: Klucel (hydroxypropylcellulose) (HPC)) was 2 of 6 and 3 of 6.

For `CCCNCCNc1ccc(NCCNCCC)c2c1C(=O)c1ccccc1C2=O`, the T/C (dose: 50.0 mg/kg/injection, schedule: Q01DX009 (ip), vehicle: distilled water + Tween-80) was 125 % of control, the survivor count (dose: 64.0 mg/kg/injection, schedule: Q01DX009 (ip), vehicle: acid diluted with saline) was 1 of 8 and the survivor count (dose: 200.0 mg/kg/injection, schedule: Q01DX009 (ip), vehicle: distilled water + Tween-80) was 0 of 6.

For `S=C(C(=S)N1CCOCC1)N1CCOCC1`, the T/C [12] was 144 % of control.

In the case of `N#CC(C(=O)O)C(c1c(Cl)cccc1Cl)C(C#N)C(=O)O` (centres undefined), the survivor count [10] was 3 of 5.

`CC1(C)CCC(C2=CC(=O)c3c(O)ccc(O)c3C2=O)O1` (centres undefined) was tested, and the survivor count [8] was 0 of 5, the survivor count [9] was 0 of 5 and the survivor count [10] was 0 of 5.

In the case of `CNC(=O)OCC1=C(COC(=O)NC)C2OC1C(C(=O)OC)=C2c1ccc(Cl)cc1` (centres undefined), the survivor count (dose: 25.0 mg/kg/injection, schedule: Q01DX009 (ip), vehicle: distilled water + Tween-80) was 6 of 6.

For `CC(CN(CC(=O)O)CC(=O)O)N(CC(=O)O)CC(=O)O.[Cl][Pd][Cl]` (centres undefined), the survivor count [11] was 2 of 6.

For `[CH3][Sn]([CH3])([S]P(=S)(c1ccccc1)c1ccccc1)[S]P(=S)(c1ccccc1)c1ccccc1`, the survivor count (dose: 200.0 mg/kg/injection, schedule: Q01DX005 (ip), vehicle: Klucel (hydroxypropylcellulose) (HPC)) was 6 of 6.

`Nc1nc(SCc2ccccn2)c2[nH]cnc2n1` was tested, and the T/C (dose: 100.0 mg/kg/injection, schedule: Q04DX003 (ip), vehicle: Klucel (hydroxypropylcellulose) (HPC)) was 131 % of control, the T/C (dose: 150.0 mg/kg/injection, schedule: Q04DX003 (ip), vehicle: Klucel (hydroxypropylcellulose) (HPC)) was 145 % of control and the T/C (dose: 225.0 mg/kg/injection, schedule: Q04DX003 (ip), vehicle: Klucel (hydroxypropylcellulose) (HPC)) was 136 % of control [5 of 6 alive].

In the case of `CCC(=O)NC(Cc1ccsc1)C(=O)O` (centres undefined), the survivor count [1] was 6 of 6.

In the case of `CCCCCCCCCCCCCCCCCC[N+]1(CCC(C)C)CCSCC1`, the survivor count (dose: 400.0 mg/kg/injection, schedule: Q01DX001 (ip), vehicle: saline with Tween-80) was 5 of 6.

For `CC(C)=Cc1cc(-c2cc(C=C(C)C)nc(N)n2)nc(N)n1`, the survivor count [11] was 3 of 6.
